Consider 2 molecules from paper PMC7925512.

Chains of the proteins cited; added tags and fusions are not shown.
UniProt Q86TM6: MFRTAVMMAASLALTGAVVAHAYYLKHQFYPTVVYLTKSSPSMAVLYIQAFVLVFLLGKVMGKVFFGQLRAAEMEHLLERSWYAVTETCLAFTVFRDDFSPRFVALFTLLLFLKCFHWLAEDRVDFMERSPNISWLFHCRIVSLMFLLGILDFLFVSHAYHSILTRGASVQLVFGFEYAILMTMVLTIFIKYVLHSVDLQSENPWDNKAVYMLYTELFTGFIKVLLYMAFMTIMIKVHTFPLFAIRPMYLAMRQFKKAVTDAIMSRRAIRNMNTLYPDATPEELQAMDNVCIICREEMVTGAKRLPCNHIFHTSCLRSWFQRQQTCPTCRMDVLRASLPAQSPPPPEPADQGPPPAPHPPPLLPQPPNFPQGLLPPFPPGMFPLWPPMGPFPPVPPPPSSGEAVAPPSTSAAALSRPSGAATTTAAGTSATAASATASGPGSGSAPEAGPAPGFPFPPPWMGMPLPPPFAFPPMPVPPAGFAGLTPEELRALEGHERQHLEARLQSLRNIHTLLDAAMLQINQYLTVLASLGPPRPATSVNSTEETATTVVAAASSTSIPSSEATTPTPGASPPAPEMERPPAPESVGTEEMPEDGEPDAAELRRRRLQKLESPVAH
UniProt Q9DBY1: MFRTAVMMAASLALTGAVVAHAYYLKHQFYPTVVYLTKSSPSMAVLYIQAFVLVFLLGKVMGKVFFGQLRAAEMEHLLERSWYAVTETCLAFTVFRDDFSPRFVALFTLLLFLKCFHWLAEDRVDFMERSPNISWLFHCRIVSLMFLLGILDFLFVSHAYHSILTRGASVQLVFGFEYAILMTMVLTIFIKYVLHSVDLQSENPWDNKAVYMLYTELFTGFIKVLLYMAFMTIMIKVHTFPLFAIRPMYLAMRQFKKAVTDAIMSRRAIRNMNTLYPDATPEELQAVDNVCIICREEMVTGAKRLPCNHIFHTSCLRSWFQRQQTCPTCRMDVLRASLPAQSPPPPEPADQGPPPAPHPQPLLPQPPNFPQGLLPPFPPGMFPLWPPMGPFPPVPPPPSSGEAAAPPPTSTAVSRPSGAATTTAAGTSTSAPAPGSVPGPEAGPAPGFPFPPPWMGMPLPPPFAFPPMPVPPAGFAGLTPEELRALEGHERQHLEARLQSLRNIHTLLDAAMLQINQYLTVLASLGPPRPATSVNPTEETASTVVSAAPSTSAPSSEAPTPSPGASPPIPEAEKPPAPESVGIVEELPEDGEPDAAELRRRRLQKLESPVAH

No constants are given. Whether binding was seen depends on the method and setting. In cells and extracts the contact can be indirect. Some binding calls cover weakened binding; strength is not graded here. For some assays here: Sequences can lack the tags named with a protein.

For test [1], the target named is human Flag-HRD1 (human) (UniProt Q86TM6). The test can be described thus: co-IP; called an in vitro binding assay; HA-tagged ubiquitin, Flag-tagged HRD1 and His-tagged NRF2 or its deletion mutants, immunoprecipitated from HEK-293T cells.
The target of test [2] is HRD1 (mouse (endogenous in TCMK-1)) (UniProt Q9DBY1). The experiment in a line: co-IP; endogenous proteins in lysate of H/R-exposed TCMK-1 cells; 1 mg total protein lysate with antibodies against specific proteins or rabbit polyclonal IgG control, 4 h at 4 °C, Protein A/G Plus-Agarose, western blot.

B1: human His-NRF2 (protein, UniProt Q16236-2 1-589)
chain: MDLIDILWRQDIDLGVSREVFDFSQRRKEYELEKQKKLEKERQEQLQKEQEKAFFAQLQLDEETGEFLPIQPAQHIQSETSGSANYSQVAHIPKSDALYFDDCMQLLAQTFPFVDDNEVSSATFQSLVPDIPGHIESPVFIATNQAQSPETSVAQVAPVDLDGMQQDIEQVWEELLSIPELQCLNIENDKLVETTMVPSPEAKLTEVDNYHFYSSIPSMEKEVGNCSPHFLNAFEDSFSSILSTEDPNQLTVNSLNSDATVNTDFGDEFYSAFIAEPSISNSMPSPATLSHSLSELLNGPIDVSDLSLCKAFNQNHPESTAEFNDSDSGISLNTSPSVASPEHSVESSSYGDTLLGLSDSEVEELDSAPGSVKQNGPKTPVHSSGDMVQPLSPSQGQSTHVHDAQCENTPEKELPVSPGHRKTPFTKDKHSSRLEAHLTRDELRAKALHIPFPVEKIINLPVVDFNEMMSKEQFNEAQLALIRDIRRRGKNKVAAQNCRKRKLENIVELEQDLDHLKDEKEKLLKEKGENDKSLHLLKKQLSTLYLEVFSMLRDEDGKPYSPSEYSLQQTRDGNVFLVPKSKKPDVKKN
Regarding B1, the binding entry in test [1] is listed as “binds”.

B2: nuclear factor erythroid 2-related factor 2 (NRF2) (protein, UniProt Q60795 1-597)
chain: MMDLELPPPGLQSQQDMDLIDILWRQDIDLGVSREVFDFSQRQKDYELEKQKKLEKERQEQLQKEQEKAFFAQFQLDEETGEFLPIQPAQHIQTDTSGSASYSQVAHIPKQDALYFEDCMQLLAETFPFVDDHESLALDIPSHAESSVFTAPHQAQSLNSSLEAAMTDLSSIEQDMEQVWQELFSIPELQCLNTENKQLADTTAVPSPEATLTEMDSNYHFYSSISSLEKEVGNCGPHFLHGFEDSFSSILSTDDASQLTSLDSNPTLNTDFGDEFYSAFIAEPSDGGSMPSSAAISQSLSELLDGTIEGCDLSLCKAFNPKHAEGTMEFNDSDSGISLNTSPSRASPEHSVESSIYGDPPPGFSDSEMEELDSAPGSVKQNGPKAQPAHSPGDTVQPLSPAQGHSAPMRESQCENTTKKEVPVSPGHQKAPFTKDKHSSRLEAHLTRDELRAKALHIPFPVEKIINLPVDDFNEMMSKEQFNEAQLALIRDIRRRGKNKVAAQNCRKRKLENIVELEQDLGHLKDEREKLLREKGENDRNLHLLKRRLSTLYLEVFSMLRDEDGKPYSPSEYSLQQTRDGNVFLVPKSKKPDTKKN
Regarding B2, the binding entry in test [2] is reported as “binds”.
